In test [1] the target is T1, Madcam1-FLAG (Mucosal vascular addressin cell adhesion molecule 1, C-terminal FLAG tag) (human) (UniProt Q13477).
T1 sequence: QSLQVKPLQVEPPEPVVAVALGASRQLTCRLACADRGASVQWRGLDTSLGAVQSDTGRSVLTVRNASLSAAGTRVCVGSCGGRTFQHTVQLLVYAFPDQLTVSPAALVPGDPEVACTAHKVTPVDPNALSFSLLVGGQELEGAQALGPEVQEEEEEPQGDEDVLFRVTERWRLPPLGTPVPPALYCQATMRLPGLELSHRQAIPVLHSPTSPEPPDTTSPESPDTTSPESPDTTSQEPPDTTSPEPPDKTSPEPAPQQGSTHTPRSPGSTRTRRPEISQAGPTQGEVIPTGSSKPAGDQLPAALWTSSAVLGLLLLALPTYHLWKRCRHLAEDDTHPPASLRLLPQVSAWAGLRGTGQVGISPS
In words: co-IP; Madcam1-FLAG co-transfected with AKT-Myc into Bel-7402 cells; reciprocal co-IP.

Test [2] addresses AKT-Myc. The test is described as above.
The target in test [3] is AKT-Myc. Briefly: proximity ligation; Duolink in situ PLA on fixed Bel-7402 and SMMC-7721 cells co-transfected with AKT-Myc and Madcam1-FLAG; rabbit anti-Myc and mouse anti-FLAG.
The target of test [4] is AKT, endogenous (human (endogenous in Bel-7402 and SMMC-7721)). In words: co-IP; endogenous AKT and Madcam1 in Bel-7402 cells; reciprocal co-IP with the indicated antibodies; control IgG as negative control.
For test [5] the target is unchanged. In words: proximity ligation; Duolink in situ PLA on fixed Bel-7402 and SMMC-7721 cells, endogenous proteins; rabbit anti-AKT and mouse anti-Madcam1; controls with no antibody or only one antibody.

Results are given in words; binding and its absence hold for the method and conditions named. In cells and extracts the contact can be indirect. A result given as binding can be weak or reduced; the word gives no strength. For some assays here: Where a sequence is shown, tags or fusion partners need not be part of it.

Consider AKT-Myc, for which the binding entry in test [1] is given as “binds”.

B1: Madcam1-FLAG (Mucosal vascular addressin cell adhesion molecule 1, C-terminal FLAG tag) (protein, UniProt Q13477 19-382)
chain: QSLQVKPLQVEPPEPVVAVALGASRQLTCRLACADRGASVQWRGLDTSLGAVQSDTGRSVLTVRNASLSAAGTRVCVGSCGGRTFQHTVQLLVYAFPDQLTVSPAALVPGDPEVACTAHKVTPVDPNALSFSLLVGGQELEGAQALGPEVQEEEEEPQGDEDVLFRVTERWRLPPLGTPVPPALYCQATMRLPGLELSHRQAIPVLHSPTSPEPPDTTSPESPDTTSPESPDTTSQEPPDTTSPEPPDKTSPEPAPQQGSTHTPRSPGSTRTRRPEISQAGPTQGEVIPTGSSKPAGDQLPAALWTSSAVLGLLLLALPTYHLWKRCRHLAEDDTHPPASLRLLPQVSAWAGLRGTGQVGISPS
In the case of B1, the binding entry in test [2] and in test [3] was “binds” each time.

B2: Madcam1 (Mucosal vascular addressin cell adhesion molecule 1), endogenous (protein, UniProt Q13477 19-382)
chain: QSLQVKPLQVEPPEPVVAVALGASRQLTCRLACADRGASVQWRGLDTSLGAVQSDTGRSVLTVRNASLSAAGTRVCVGSCGGRTFQHTVQLLVYAFPDQLTVSPAALVPGDPEVACTAHKVTPVDPNALSFSLLVGGQELEGAQALGPEVQEEEEEPQGDEDVLFRVTERWRLPPLGTPVPPALYCQATMRLPGLELSHRQAIPVLHSPTSPEPPDTTSPESPDTTSPESPDTTSQEPPDTTSPEPPDKTSPEPAPQQGSTHTPRSPGSTRTRRPEISQAGPTQGEVIPTGSSKPAGDQLPAALWTSSAVLGLLLLALPTYHLWKRCRHLAEDDTHPPASLRLLPQVSAWAGLRGTGQVGISPS
B2: the binding entry in test [4] and in test [5] was “binds” each time.

(Values after paper PMC4695171.)
